Cleaved PARP after 72 h of treatment

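Human melanoma cells were exposed to a pair of drugs for 72 h in 1,536-well plates and read by automated microscopy after fixing and staining. Values are the share of nuclei positive for cleaved PARP as a percentage of the same share in the DMSO control: 100 is the control level, higher means more apoptosis. Concentrations were fixed for each drug; these are the higher of two levels. The file gives one value for each pair and line, without errors, so small differences may be noise. Basal and induced levels differ widely between cell lines.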
This is part of the screen, not chosen by result.

First drug in all entries: lapatinib, 4000 nM, CS(=O)(=O)CCNCc1ccc(-c2ccc3ncnc(Nc4ccc(OCc5cccc(F)c5)c(Cl)c4)c3c2)o1

Drugs:
CX-4945, 2000 nM: O=C(O)c1ccc2c(c1)nc(Nc1cccc(Cl)c1)c1ccncc12
lestaurtinib, 20 nM: C[C@]12O[C@H](C[C@]1(O)CO)n1c3ccccc3c3c4c(c5c6ccccc6n2c5c31)CNC4=O
dovitinib, 500 nM: CN1CCN(c2ccc3nc(-c4c(N)c5c(F)cccc5[nH]c4=O)[nH]c3c2)CC1
GW0742, 10000 nM: Cc1cc(SCc2sc(-c3ccc(C(F)(F)F)c(F)c3)nc2C)ccc1OCC(=O)O
dorsomorphin, 2000 nM: c1cc(-c2cnn3cc(-c4ccc(OCCN5CCCCC5)cc4)cnc23)ccn1
LFM-A13, 10000 nM: C/C(O)=C(\C#N)C(=O)Nc1cc(Br)ccc1Br
CP-690550, 5000 nM: C[C@@H]1CCN(C(=O)CC#N)C[C@@H]1N(C)c1ncnc2[nH]ccc12
KU-0063794, 100 nM: COc1ccc(-c2ccc3c(N4CCOCC4)nc(N4C[C@@H](C)O[C@@H](C)C4)nc3n2)cc1CO
XAV939, 10000 nM: Oc1nc(-c2ccc(C(F)(F)F)cc2)nc2c1CSCC2
selumetinib, 75 nM: Cn1cnc2c(F)c(Nc3ccc(Br)cc3Cl)c(C(=O)NOCCO)cc21
BI-78D3, 1000 nM: O=c1[nH]nc(Sc2ncc([N+](=O)[O-])s2)n1-c1ccc2c(c1)OCCO2
SU6656, 2000 nM: CN(C)S(=O)(=O)c1ccc2c(c1)/C(=C/c1cc3c([nH]1)CCCC3)C(=O)N2
GSK650394, 800 nM: O=C(O)c1ccc(-c2c[nH]c3ncc(-c4ccccc4)cc23)cc1C1CCCC1
BI-D1870, 1000 nM: CC(C)CCN1c2nc(Nc3cc(F)c(O)c(F)c3)ncc2N(C)C(=O)C1C (stereo not given)
sunitinib, 2000 nM: CCN(CC)CCNC(=O)c1c(C)[nH]c(/C=C2\C(=O)Nc3ccc(F)cc32)c1C

Partner | RVH-421 | WM1716 | A101D | COLO 792 | WM451Lu | COLO 800 | IPC-298 | C32 | UACC-62
selumetinib | 107 | 121 | 99.5 | 382 | 128 | 238 | 112 | 122 | 374
BI-D1870 | 31.0 | 23.7 | 382 | 200 | 191 | 76.5 | 56.2 | 82.1 | 86.5
GSK650394 | 123 | 76.6 | 230 | 123 | 60.2 | 159 | 156 | 113 | 154
dovitinib | 36.8 | 360 | 119 | 206 | 39.8 | 105 | 89.7 | 192 | 186
LFM-A13 | 153 | 24.6 | 416 | 151 | 126 | 104 | 50.3 | 76.7 | 235
SU6656 | 61.2 | 153 | 289 | 218 | 82.4 | 284 | 76.8 | 325 | 149
KU-0063794 | 117 | 81.2 | 99.5 | 86.7 | 33.8 | 209 | 80.9 | 148 | 188
XAV939 | 78.5 | 80.0 | 240 | 148 | 34.3 | 252 | 145 | 75.2 | 219
sunitinib | 183 | 50.4 | 183 | 335 | 304 | 80.3 | 50.5 | 99.5 | 376
dorsomorphin | 69.2 | 36.3 | 276 | 136 | 172 | 183 | 260 | 166 | 406
CP-690550 | 43.3 | 34.4 | 141 | 74.2 | 107 | 44.2 | 81.3 | 283 | 232
lestaurtinib | 97.7 | 48.5 | 103 | 232 | 84.2 | 52.2 | 123 | 142 | 323
CX-4945 | 88.1 | 104 | 155 | 375 | 128 | 57.1 | 119 | 423 | 558
BI-78D3 | 447 | 74.1 | 122 | 129 | 44.0 | 122 | 206 | 662 | 402
GW0742 | 59.0 | 127 | 147 | 61.3 | 49.9 | 110 | 87.1 | 84.2 | 312

For reference, 2 entries once more:

Partner	RVH-421	WM1716	A101D	COLO 792	WM451Lu	COLO 800	IPC-298	C32	UACC-62
GW0742	59.0	127	147	61.3	49.9	110	87.1	84.2	312
dovitinib	36.8	360	119	206	39.8	105	89.7	192	186

From a melanoma drug combination screen (doi:10.1371/journal.pone.0140310); values rounded.